Laboratory results as given in PubChem BioAssay AID2718 (Broad Institute, 2010).
About 480 (0.15%) of roughly 320,000 compounds were called active. The inconclusive results got no clear call from the source; some entries with a clear call stand among them for comparison. Cut-off read from the data, not from the text of the source: active = inhibition above about 26% (passing the limit was not always enough); inconclusive = no clear call, values can overlap the other calls.

By UniProt entry, the sequences of proteins in these tests, tags left out.
UniProt O15379, whole entry, looked up: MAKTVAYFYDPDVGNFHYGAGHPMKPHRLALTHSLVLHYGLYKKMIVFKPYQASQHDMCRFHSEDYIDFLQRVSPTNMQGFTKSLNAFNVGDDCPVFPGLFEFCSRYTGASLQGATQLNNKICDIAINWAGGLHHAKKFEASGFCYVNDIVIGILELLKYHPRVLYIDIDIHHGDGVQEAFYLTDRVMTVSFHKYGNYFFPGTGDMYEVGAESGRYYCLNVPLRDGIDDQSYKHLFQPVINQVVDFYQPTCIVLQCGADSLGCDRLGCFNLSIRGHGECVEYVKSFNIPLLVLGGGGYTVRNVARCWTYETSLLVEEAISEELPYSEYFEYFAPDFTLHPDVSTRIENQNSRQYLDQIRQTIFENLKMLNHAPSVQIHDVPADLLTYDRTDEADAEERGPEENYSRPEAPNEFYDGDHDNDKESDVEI

Biological target: Histone deacetylase 3 (Homo sapiens) (UniProt O15379)
Assay: HDAC3 deacetylase inhibitors, primary screen, biochemical, fluorescence, cell-free homogeneous (AID 2718)
Conditions: recombinant HDAC3, fluorogenic peptide/trypsin coupled, at 8.3 µM, stronger effect = higher value

SMILES	inhibition
COc1cc(/C=C2/C(=N)N3C(c4ccccc4)=CSC3=NC2=O)ccc1OCC(=O)O	inactive: 5.02%
COc1ccc(C(=O)NCc2nnc(SCC(=O)NO)n2Cc2ccccc2)cc1	active: 90.5%
COc1ccc(C(=O)N2CCCC(c3ccccc3)=N2)cc1	inconclusive: 16.3%
CC(C)C(C(=O)O)N1C(=O)/C(=C/c2cccn2C)SC1=S (centres undefined)	active: 33.4%
S=C(NCc1ccccc1)NNc1nc2ccccc2[nH]1	inconclusive: 13.8%
CC(C)=CC(=O)N1CC[C@@H](N2CCN(c3ccccc3F)CC2)[C@H](O)C1	inactive: 1.65%
O=C(NCCc1c[nH]c2ccccc12)c1cnccn1	inactive: -4.73%
O=C(O)c1ccccc1-c1nc2cc(Cl)ccc2c(=O)n1O	inconclusive: 22.6%
COCCCn1c(SCC(=O)c2ccccc2)nc2ccccc2c1=O	inconclusive: 15.2%
CSCCCNC(=S)Nc1ccc(N2CCOCC2)cc1	inactive: -9.62%
Cc1ccc(S(=O)(=O)Nc2cccc3c2O[C@H](CN(C)Cc2ccc(-c4ccccc4)cc2)[C@@H](C)CN([C@H](C)CO)C3=O)cc1	inconclusive: 27%
Cc1ccc(C(=O)O/N=C(\c2ccccc2)c2ccncc2)cc1	active: 36%
C=CC[C@@H](Cc1ccc(F)cc1)C(=O)OC[C@@H]1CCCN1C(=O)[C@H](CC=C)CC(=O)NCCO	inactive: -5.79%
COc1cc(C2C(C(=O)c3ccco3)=C(O)C(=O)N2c2cc(C)on2)cc(Br)c1O (centres undefined)	inconclusive: 26.5%
CSc1ccccc1NC(=O)CN1CCCCC1C (centres undefined)	inconclusive: 25.8%
COc1ccccc1CNS(=O)(=O)c1cc(-c2cc(C)no2)ccc1C(C)C	inconclusive: 24.5%
O=S1(=O)N=C(Nc2ccc(N3CCOCC3)cc2)c2ccccc21	inconclusive: 14.4%
CCOC(=O)c1c(NC(=O)COc2cccc3c2CCN(C)C3=O)sc2c1CCC2	inactive: 2.96%
CC(C)(C)c1ccc(Cn2cnc(-c3ccc([N+](=O)[O-])cc3)c2)cc1	inconclusive: 20.4%
CCc1cccc(CC)c1NC(=O)CSc1nc2ccc(N3C(=O)C4C(C3=O)[C@H]3C=C[C@@H]4C3)cc2s1 (some centres undefined)	inconclusive: 14.2%
Cc1cccc(NC(=O)NCCc2ccc(Cl)cc2)c1	inconclusive: 18.3%
CCc1cccc2c(C(=O)CN3C(=O)NC(C)(c4cccc5ccccc45)C3=O)c[nH]c12 (centres undefined)	inconclusive: 22.8%
CCN1C(=O)/C(=C/C=C2/CCCN2C)OC1=S	inconclusive: 25.1%
CCC(c1nnnn1CCc1ccccc1)N(Cc1ccco1)Cc1cc2c(C)ccc(C)c2[nH]c1=O (centres undefined)	inactive: -0.332%

Some of the entries so far, in markdown:

| SMILES | inhibition |
| --- | --- |
| CCc1cccc(CC)c1NC(=O)CSc1nc2ccc(N3C(=O)C4C(C3=O)[C@H]3C=C[C@@H]4C3)cc2s1 (some centres undefined) | inconclusive: 14.2% |
| CCN1C(=O)/C(=C/C=C2/CCCN2C)OC1=S | inconclusive: 25.1% |
